From patent US20250288632A1, “Viral Entry Inhibitors Derived From Botanicals” (priority 2022, published 2025)

Test: Cytotoxicity assay measuring cell proliferation in Vero cells
Type: cell-based
Conditions: African green monkey, remdesivir
Procedure: Numbers in parentheses indicate percent inhibition at the highest concentration tested. Cytotoxicity assays measuring the cell proliferation in PBM and Vero cells were performed in parallel to the antiviral assays.

For CCC(CC)COC(=O)[C@H](C)N[P@](=O)(OC[C@H]1O[C@@](C#N)(c2ccc3c(N)ncnn23)[C@H](O)[C@@H]1O)Oc1ccccc1 [Remdesivir], the CC50 was 60.3 µM.
